Experimental data from patent publication US20250368652A1, “MICROBIOCIDAL BICYCLIC HETEROCYCLIC CARBOXAMIDE DERIVATIVES” (SYNGENTA CROP PROTECTION AG, priority 2022, published 2025).
Some of these results come from one statement about several compounds together.

What was measured:
Sclerotinia sclerotiorum = Sclerotinia sclerotiorum / liquid culture (cottony rot); type: cell-based; conditions: 20 ppm; liquid culture (PDB), growth inhibition photometrically 3-4 days after application; compared to untreated control
[1] = system: Monographella nivalis (Microdochium nivale); experiment: Monographella nivalis (Microdochium nivale) / liquid culture (foot rot cereals); type: cell-based; conditions: 20 ppm; liquid culture (PDB), growth inhibition photometrically 4-5 days after application; compared to untreated control

Row | SMILES | control of Sclerotinia sclerotiorum (Sclerotinia sclerotiorum) | control of Monographella nivalis [1]
1 | O=C(NCC(F)c1ccc(Cl)cc1Cl)c1c(Oc2cccc(C3CC3)c2)cnc2c(Cl)cnn12 (racemic) [Compound P-1.9, 3-chloro-6-(3-cyclopropylphenoxy)-N-[2-(2,4-dichlorophenyl)-2-fluoro-ethyl]pyrazolo[1,5-a]pyrimidine-7-carboxamide] | at least 80% | 
2 | O=C(NC[C@H](F)c1ccc(Cl)cc1Cl)c1c(Oc2cccc(C3CC3)c2)cnc2c(Cl)cnn12 (single isomer, unassigned) [Compound P-1.16] | at least 80% | at least 80%
3 | O=C(NCC(F)c1ccc(Cl)cc1Cl)c1c(Oc2cccc(C3CC3)c2)cnc2nccn12 (stereo not drawn) [Compound P-1.1, 6-(3-cyclopropylphenoxy)-N-[2-(2,4-dichlorophenyl)-2-fluoro-ethyl]imidazo[1,2-a]pyrimidine-5-carboxamide] |  | at least 80%
4 | O=C(NCCc1ccc(Cl)cc1Cl)c1c(Oc2cccc(C3CC3)c2)cnc2nccn12 [Compound P-1.6, 6-(3-cyclopropylphenoxy)-N-[2-(2,4-dichlorophenyl)ethyl]imidazo[1,2-a]pyrimidine-5-carboxamide] |  | at least 80%
5 | Cc1nn2c(C(=O)NCC(F)c3ccc(Cl)cc3Cl)c(Oc3cccc(C4CC4)c3)cnc2c1C#N (stereo not drawn) [Compound P-1.20, 3-cyano-6-(3-cyclopropylphenoxy)-N-[2-(2,4-dichlorophenyl)-2-fluoro-ethyl]-2-methyl-pyrazolo[1,5-a]pyrimidine-7-carboxamide] |  | at least 80%
